Reference: US20240376153A1 (Igisu Co., Ltd., priority 2015, published 2024)
No end group written: not given here.

Experiment: peptide synthesis
Details: whole synthesis, UV 215 nm

## CFGLKLDRIGSMSGLGC (cysteine pairing not given here)
  final HPLC purity: 99.2%
